Results are given in words; binding and its absence hold for the method and conditions named. In cells and extracts the contact can be indirect. A result given as binding can be weak or reduced; the word gives no strength.

The chains behind the UniProt entries cited, without tags or fusion partners. Where a name states a change or a piece, a line headed by the entry shows the natural chain unless it says otherwise.
UniProt A0A499PM71: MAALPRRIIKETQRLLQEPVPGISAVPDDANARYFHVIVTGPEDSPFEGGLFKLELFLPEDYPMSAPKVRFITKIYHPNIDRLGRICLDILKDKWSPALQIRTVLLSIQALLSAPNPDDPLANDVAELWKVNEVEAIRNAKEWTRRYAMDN

The target of this assay is GPS2-His, full-length G protein pathway suppressor 2 of the small brown planthopper (small brown planthopper, Laodelphax striatellus). The experiment in a line: pull-down; His-tag pull-down with three recombinant proteins: GPS2-His on Ni Sepharose as bait for Ubc13-GST at a series of dilutions of CP-GST.

As for “Ubc13-GST, GST-tagged E2 ubiquitin-conjugating enzyme Ubc13 of the small brown planthopper (from UniProt A0A499PM71)”, the binding result is on record as “binds”.

(Values after article PMC5515582.)
